Test results: paper PMC4231456, “HIV-1 Tat protein binds to TLR4-MD2 and signals to induce TNF-α and IL-10” (Retrovirology, 2013)
Results are given in words; binding and its absence hold for the method and conditions named. For some of these results: Binding calls can cover weak binding; strength is not graded here. For some of these results: In cells and extracts the contact can be indirect.

Legend:
[1] = target: T1, recombinant human MD2 (human) (UniProt Q9Y6Y9); assay: ELISA; competition: GST-Tat 1-101 or GST-Tat 1-45 (0.1 μM) pre-incubated 1 h at 37°C with increasing amounts of soluble rhMD2, rhTLR4-MD2, rhTLR4 or rhCD14, then 2 h on coated rhMD2 (or TLR4-MD2); OD 450 nm; K0.5 taken as an apparent dissociation constant; both purified
T1 sequence: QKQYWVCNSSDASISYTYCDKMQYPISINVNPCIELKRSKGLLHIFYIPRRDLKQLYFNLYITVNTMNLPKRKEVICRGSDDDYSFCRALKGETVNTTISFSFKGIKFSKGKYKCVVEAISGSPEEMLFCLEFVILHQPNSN

[2] = target: T2, recombinant human CD14 (human) (UniProt P08571); assay: ELISA; solid phase assay: rh TLR4-MD2, MD2 or CD14 coated at 1 μg/ml (24 h, 4°C); GST-Tat 1-101, GST-Tat 1-45, GST-Tat 30-72 or GST (1 μM) incubated 2 h at 37°C; detected with anti-GST or monoclonal anti-Tat; OD 450 nm; both purified
T2 sequence: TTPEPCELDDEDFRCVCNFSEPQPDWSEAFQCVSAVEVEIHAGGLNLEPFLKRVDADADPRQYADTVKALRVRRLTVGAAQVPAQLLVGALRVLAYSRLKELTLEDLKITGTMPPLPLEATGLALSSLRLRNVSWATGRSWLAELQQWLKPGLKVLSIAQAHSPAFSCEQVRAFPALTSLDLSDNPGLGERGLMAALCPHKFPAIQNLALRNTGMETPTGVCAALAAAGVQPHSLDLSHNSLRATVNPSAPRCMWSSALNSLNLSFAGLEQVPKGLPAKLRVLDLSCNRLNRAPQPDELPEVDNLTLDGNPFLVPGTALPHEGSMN

[3] = target: T1, recombinant human MD2 (human); assay: as above
[4] = target: GST-Tat 1-45 (N-terminal domain of HIV-1 Tat) (HIV-1); assay: pull-down; GST or GST-Tat proteins (1 μM) coupled to glutathione-agarose beads, saturated with BSA, incubated with soluble recombinant human TLR4-MD2, MD2 or CD14 (1 μg); washes with Tris-HCl 20 mM, NaCl 150 mM, NP-40 0.5%; western blot; both purified
[5] = target: GST-Tat 1-101 (HIV-1 Tat protein) (HIV-1); assay: as above
[6] = target: GST-Tat 1-45 (N-terminal domain of HIV-1 Tat) (HIV-1); assay: pull-down; GST or GST-Tat proteins coupled to glutathione-agarose beads incubated with 500 μg of total cellular extract of HEK 293-TLR4-MD2-CD14 cells (HEK 293 as control); western blot with antibodies against CD14, MD2, TLR4; only the target purified
[7] = target: GST-Tat 1-101 (HIV-1 Tat protein) (HIV-1); assay: as above

GST-Tat 1-45 (N-terminal domain of HIV-1 Tat) (domain or fragment)
binding [1]: binds | binding [2]: no binding (tested: 1 μM) | binding [3]: binds

GST-Tat 30-72 (central domain of HIV-1 Tat) (domain or fragment)
binding [2]: no binding (tested: 1 μM) | binding [3]: no binding (tested: 1 μM)

GST-Tat 1-101 (HIV-1 Tat protein)
binding [1]: binds | binding [2]: no binding (tested: 1 μM) | binding [3]: binds

B1: recombinant human CD14 (protein, UniProt P08571 20-345)
chain: T2 sequence
binding [4]: no binding (tested: 1 μg/ml) | binding [5]: no binding (tested: 1 μg/ml)

B2: CD14 from HEK293 cells stably transfected with TLR4-CD14-MD2 (protein, UniProt P08571 20-345)
chain: T2 sequence
binding [6]: no binding (tested: 500 μg of cellular extract) | binding [7]: no binding (tested: 500 μg of cellular extract)

B3: MD2 from HEK293 cells stably transfected with TLR4-CD14-MD2 (protein, UniProt Q9Y6Y9 19-160)
chain: T1 sequence
binding [6]: binds | binding [7]: binds

B4: recombinant human MD2 (natural protein, UniProt Q9Y6Y9 19-160, looked up)
chain: T1 sequence
notes: human MD2 (lymphocyte antigen 96), soluble recombinant; No catalogue number printed; also called rhMD2; hMD2; source: bought: R&D Systems
binding [4]: binds | binding [5]: binds
